Data as given in PubChem BioAssay AID652243 (Drosophila RNAi Screening Center, 2013)
Test: 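Fly regulators of androgen-dependent reporter output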 (primary screen). System: Drosophila S2R+ cells. Reagent: long dsRNA against Drosophila genes. Timing: 72 h (48 h, then 24 h hormone). Challenge: synthetic androgen R1881 at 10 nM for 24 h. Measurement: 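Per-well raw luminescence of the androgen-driven firefly reporter and of the Renilla control, two replicates each, without normalisation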. Scale: firefly reporter light: higher = more light from androgen-responsive reporter; Renilla control light: higher = more constitutive control signal (cell number, transfection). Hit rule: 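Hit when the log firefly-to-Renilla ratio dropped or increased by a fixed fold versus the mean of GFP or LacZ controls across duplicate plates; lowering cut given as 1.5 and as 3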. Calls: active = hit: reporter lowered or raised; inactive = no hit.
The screen tested about 24,000 reagents; shown is an unselected part of those that have a named target and a result. Over the whole deposit, 246 (1%) were called active. 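Plates not normalised; calls are printed but the firefly/Renilla ratio behind them is not deposited; fold cut for lowering reported inconsistently.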 Raw values vary from plate to plate and are shown uncorrected. A plus sign joins genes that one reagent is predicted to hit. Reagent sequences are not shown. The record does not give: the amount of reagent.

| gene | DRSC id | firefly reporter light, replicate 1 | firefly reporter light, replicate 2 | Renilla control light, replicate 1 | Renilla control light, replicate 2 | activity call |
| --- | --- | --- | --- | --- | --- | --- |
| CG31327 (GeneID 318684) | DRSC13019 | 1.68e5 | 1.66e5 | 3.92e5 | 3.60e5 | inactive |
| PGRP-SC1a (GeneID 35859) | DRSC06482 | 4.30e5 | 2.47e5 | 2.52e6 | 1.42e6 | inactive |
| gek (GeneID 37858) | DRSC04688 | 6.82e5 | 6.37e5 | 1.28e6 | 1.10e6 | inactive |
| gek (GeneID 37858) | DRSC36740 | – | – | – | – | inactive |
| gek (GeneID 37858) | DRSC36741 | – | – | – | – | inactive |
| Jhbp14 (GeneID 34728) | DRSC01988 | 2.22e5 | 2.85e5 | 1.97e6 | 1.89e6 | inactive |
| CG34284 (GeneID 5740234) | DRSC14773 | 1.90e5 | 2.37e5 | 2.00e6 | 2.54e6 | inactive |
| Polr1F (GeneID 33963) | DRSC02278 | 9.64e5 | 1.06e6 | 1.98e6 | 1.98e6 | inactive |
| Polr1F (GeneID 33963) | DRSC28047 | 3.93e5 | 6.12e5 | 1.82e6 | 2.00e6 | inactive |
| Fie (GeneID 38452) | DRSC08158 | 1.06e6 | 4.65e5 | 1.99e6 | 8.52e5 | inactive |
| CG14118 (GeneID 39465) | DRSC10122 | 1.71e5 | 1.44e5 | 2.34e6 | 1.24e6 | inactive |
| betaTub65B (GeneID 117406) | DRSC11393 | 1.32e5 | 3.02e5 | 1.94e6 | 4.16e6 | inactive |
| Fen1 (GeneID 36887) | DRSC07415 | 67940 | 86787 | 1.30e6 | 1.30e6 | inactive |
| CG14570 (GeneID 40416) | DRSC11731 | 3.42e5 | 2.70e5 | 2.60e6 | 2.50e6 | inactive |
| CG14570 (GeneID 40416) | DRSC24676 | 5.83e5 | 6.70e5 | 7.17e5 | 7.28e5 | inactive |
| CG12766 (GeneID 38462) | DRSC08295 | 2.49e5 | 2.65e5 | 2.42e6 | 2.47e6 | inactive |
| CG13436 (GeneID 37334) | DRSC06396 | 55901 | 47770 | 6.66e5 | 7.31e5 | inactive |
| CR32733 (GeneID 12797943) | DRSC17481 | 3.34e5 | 3.29e5 | 6.61e5 | 5.41e5 | inactive |
| CR32733 (GeneID 12797943) | DRSC28689 | 2.69e5 | 2.96e5 | 1.42e6 | 1.60e6 | inactive |
| CG14731 (GeneID 41442) | DRSC14952 | 2.39e5 | 2.67e5 | 2.21e6 | 2.63e6 | inactive |
| CG13171 (GeneID 36323) | DRSC06299 | 2.77e5 | 2.46e5 | 2.03e6 | 2.14e6 | inactive |
| Ykt6 (GeneID 31706) | DRSC17970 | 67767 | 34036 | 4.03e5 | 3.29e5 | inactive |
| Ykt6 (GeneID 31706) | DRSC26017 | 2.95e5 | 2.88e5 | 1.11e6 | 7.66e5 | inactive |
| Obp56i (GeneID 246667) | DRSC05812 | 1.55e5 | 1.76e5 | 1.44e5 | 70844 | inactive |
| CG30411 (GeneID 246600) | DRSC04004 | 2.07e5 | 2.04e5 | 4.31e5 | 4.04e5 | inactive |
| CG30411 (GeneID 246600) | DRSC25684 | 5.30e5 | 5.65e5 | 7.13e5 | 7.32e5 | inactive |
| CG1640 (GeneID 32292) | DRSC19750 | 95487 | 1.26e5 | 7.62e5 | 8.22e5 | inactive |
| Prosbeta5 (GeneID 45269) | DRSC07517 | 2.95e5 | 1.45e5 | 1.71e6 | 1.18e6 | inactive |
| Prosbeta5 (GeneID 45269) | DRSC28939 | 6.35e5 | 6.34e5 | 1.14e6 | 1.46e6 | inactive |
| CG13365 (GeneID 31005) | DRSC17899 | 1.53e5 | 2.17e5 | 4.61e6 | 4.30e6 | inactive |
| CG13365 (GeneID 31005) | DRSC27043 | 2.37e5 | 2.39e5 | 9.28e5 | 5.65e5 | inactive |
| CG6961 + CG18259 | DRSC19799 | 2.17e5 | 1.54e5 | 9.42e5 | 5.12e5 | inactive |
| CG6961 + CG18259 | DRSC20019 | 86045 | 91233 | 7.47e5 | 7.98e5 | inactive |
| CG6961 + CG18259 | DRSC26849 | 3.32e5 | 3.68e5 | 3.91e5 | 6.60e5 | inactive |

Sorted by “firefly reporter light, replicate 2” (lowest first): 8 of the entries above.
| gene | DRSC id | firefly reporter light, replicate 1 | firefly reporter light, replicate 2 | Renilla control light, replicate 1 | Renilla control light, replicate 2 | activity call |
| --- | --- | --- | --- | --- | --- | --- |
| Ykt6 (GeneID 31706) | DRSC17970 | 67767 | 34036 | 4.03e5 | 3.29e5 | inactive |
| CG13436 (GeneID 37334) | DRSC06396 | 55901 | 47770 | 6.66e5 | 7.31e5 | inactive |
| CG13171 (GeneID 36323) | DRSC06299 | 2.77e5 | 2.46e5 | 2.03e6 | 2.14e6 | inactive |
| CG12766 (GeneID 38462) | DRSC08295 | 2.49e5 | 2.65e5 | 2.42e6 | 2.47e6 | inactive |
| CG14731 (GeneID 41442) | DRSC14952 | 2.39e5 | 2.67e5 | 2.21e6 | 2.63e6 | inactive |
| Ykt6 (GeneID 31706) | DRSC26017 | 2.95e5 | 2.88e5 | 1.11e6 | 7.66e5 | inactive |
| CR32733 (GeneID 12797943) | DRSC28689 | 2.69e5 | 2.96e5 | 1.42e6 | 1.60e6 | inactive |
| CR32733 (GeneID 12797943) | DRSC17481 | 3.34e5 | 3.29e5 | 6.61e5 | 5.41e5 | inactive |

Next entries follow:
| gene | DRSC id | firefly reporter light, replicate 1 | firefly reporter light, replicate 2 | Renilla control light, replicate 1 | Renilla control light, replicate 2 | activity call |
| --- | --- | --- | --- | --- | --- | --- |
| Obp56f (GeneID 246668) | DRSC22270 | 9.49e5 | 1.07e6 | 1.98e6 | 2.07e6 | inactive |
| ru (GeneID 44856) | DRSC08258 | 36220 | 47200 | 9.25e5 | 8.95e5 | inactive |
| ru (GeneID 44856) | DRSC28529 | 1.84e5 | 3.18e5 | 6.67e5 | 1.24e6 | inactive |
| Sema2a (GeneID 36846) | DRSC07551 | 5.33e5 | 6.98e5 | 1.90e6 | 2.06e6 | inactive |
| lobo (GeneID 4379864) | DRSC14662 | 1.41e5 | 1.74e5 | 2.63e6 | 2.21e6 | inactive |
| lobo (GeneID 4379864) | DRSC14663 | 1.36e5 | 1.72e5 | 1.97e6 | 2.08e6 | inactive |
| lobo (GeneID 4379864) | DRSC29681 | 5.16e5 | 7.70e5 | 7.97e5 | 7.97e5 | inactive |
| gsb-n (GeneID 38004) | DRSC04021 | 1.68e5 | 2.08e5 | 3.35e5 | 4.96e5 | inactive |
| gsb-n (GeneID 38004) | DRSC04693 | 3.44e5 | 3.92e5 | 2.09e6 | 2.06e6 | inactive |
| Mst84Db (GeneID 40888) | DRSC12542 | 1.35e5 | 1.21e5 | 2.07e6 | 1.39e6 | inactive |
| Mst84Db (GeneID 40888) | DRSC12598 | 91515 | 1.17e5 | 2.40e6 | 2.31e6 | inactive |
| Mst84Db (GeneID 40888) | DRSC29236 | 6.40e5 | 5.62e5 | 1.34e6 | 1.47e6 | inactive |
| CG14459 (GeneID 40476) | DRSC23039 | 1.01e6 | 1.13e6 | 1.51e6 | 1.66e6 | inactive |
| Muc14A (GeneID 318097) | DRSC23264 | 8.56e5 | 6.98e5 | 1.02e6 | 6.78e5 | inactive |
| Muc14A (GeneID 318097) | DRSC38613 | 9.80e5 | 7.33e5 | 2.47e6 | 2.21e6 | inactive |
| CG8401 (GeneID 36770) | DRSC07165 | 1.10e6 | 8.86e5 | 2.41e6 | 2.10e6 | inactive |
| Su(H) (GeneID 34881) | DRSC03445 | 1.27e5 | 1.36e5 | 1.10e6 | 1.54e6 | inactive |
| Su(H) (GeneID 34881) | DRSC39115 | 4.24e5 | 5.20e5 | 1.45e6 | 2.27e6 | inactive |
| CG32276 (GeneID 251645) | DRSC08027 | 1.26e5 | 1.41e5 | 3.08e5 | 3.39e5 | inactive |
| CG31019 (GeneID 318558) | DRSC13994 | 1.25e6 | 5.45e5 | 3.90e6 | 1.71e6 | active |
| CG31019 (GeneID 318558) | DRSC26555 | 5.38e5 | 5.02e5 | 6.13e5 | 5.20e5 | inactive |
| CG10395 (GeneID 35490) | DRSC04840 | 8.49e5 | 5.92e5 | 1.35e6 | 1.39e6 | inactive |
| CG10395 (GeneID 35490) | DRSC26811 | 3.94e5 | 3.26e5 | 7.59e5 | 6.16e5 | inactive |
| tRNA:Leu-CAA-2-3 (GeneID 3772601) | DRSC13633 | 2.83e5 | 2.06e5 | 4.12e5 | 5.68e5 | inactive |
| Npc2a (GeneID 33374) | DRSC00698 | 58478 | 52923 | 3.93e5 | 3.74e5 | inactive |
| Acox57D-p (GeneID 37445) | DRSC04560 | 7.94e5 | 7.81e5 | 1.80e6 | 2.18e6 | inactive |
| Ir7e (GeneID 7354417) | DRSC18011 | 4.88e5 | 4.99e5 | 1.46e6 | 2.60e6 | inactive |
| PH4alphaNE2 (GeneID 43628) | DRSC16544 | 2.60e5 | 1.96e5 | 2.11e6 | 2.92e6 | inactive |
| PH4alphaNE2 (GeneID 43628) | DRSC24689 | 4.12e5 | 3.33e5 | 4.58e5 | 5.26e5 | inactive |
| CG9294 (GeneID 37491) | DRSC04537 | 2.10e5 | 2.11e5 | 1.63e6 | 1.23e6 | inactive |
| CG7706 (GeneID 42244) | DRSC16295 | 50116 | 97351 | 5.52e5 | 4.05e5 | inactive |
| CG7706 (GeneID 42244) | DRSC26375 | 5.54e5 | 4.01e5 | 8.37e5 | 4.48e5 | inactive |
| AQP (GeneID 36456) | DRSC06122 | 2.55e5 | 2.75e5 | 1.56e6 | 1.78e6 | inactive |
| CG13693 (GeneID 33187) | DRSC00362 | 1.39e5 | 1.43e5 | 6.90e5 | 1.29e6 | inactive |
| CG13693 (GeneID 33187) | DRSC25981 | 4.08e5 | 2.52e5 | 8.55e5 | 5.20e5 | inactive |
| CG5882 (GeneID 43269) | DRSC15907 | 83647 | 1.50e5 | 9.39e5 | 1.90e6 | inactive |
| IntS2 (GeneID 32745) | DRSC20094 | 1.31e5 | 2.29e5 | 1.05e6 | 1.03e6 | inactive |
| CG31345 (GeneID 41576) | DRSC14193 | 52438 | 63927 | 8.73e5 | 1.20e6 | inactive |
| CG31345 (GeneID 41576) | DRSC14847 | 1.26e5 | 1.06e5 | 2.06e6 | 1.46e6 | inactive |
| CG4789 (GeneID 32668) | DRSC19918 | 6.43e5 | 3.25e5 | 3.94e6 | 2.40e6 | inactive |
